Experimental data from patent publication US20080214504A1, “Vitamin B6 Related Compounds and Methods for Recovery From Trauma” (MEDICURE INTERNATIONAL INC., priority 2004, published 2008).

Tested on: patients scheduled for elective percutaneous coronary intervention (PCI) with high-risk features for periprocedural myocardial infarction
Experiment: Randomized placebo-controlled study of P5P in patients undergoing elective PCI: recovery, length of hospitalization, time to discharge
Assay type: in vivo, human
From the text: Selection of Study Population—The patients selected for this trial were patients scheduled for elective percutaneous coronary intervention (PCI) with high-risk features for periprocedural myocardial infarction, and who satisfied specific inclusion criteria as described in the next section. Patients to be included in this study were of either sex, >18 years of age and admitted to hospital for elective, single-vessel, non-urgent PCI. Patients must have presented with at least one of the following high-risk clinical criteria: • ACS with last chest pain episode (or ischemic equivalent) within 48 hours, • recent myocardial infarction (≦7 days) with return of cardiac markers, (CK, CK-MB, and troponin) to below upper normal limits, • angiographic evidence of reduced epicardial flow (TIMI<3), • angiographic evidence of thrombus, • left ventricular ejection fraction≦30%, or • saphenous vein graft lesion. […]
Treatments Administered—Following baseline laboratory assessments, patients were randomized to placebo or P5P (a vitamin B6 related compound), administered as a 10 mg/kg oral dose, at least (4) hours prior to PCI, followed by 10 mg/kg orally divided in two daily doses for fourteen (14) days. […] The date, time and dosing of the first and last study drug dosing was recorded in the CRF. […]

Cc1ncc(COP(=O)(O)O)c(C=O)c1O [P5P, pyridoxal-5′-phosphate]
Treated more quickly than placebo (fold) (9.4 hours versus 31 hours for placebo): 3 times | Time in which patients were treated (patients randomized to P5P, placebo 31 hours): 9.4 h
